At least one read-out could not be matched to a standard name with certainty.
Test system: southern armyworm
Assay: LD90 test against southern armyworm (micrograms/GWT)
Assay type: in vivo
Description: For example, tests have been carried out in which the instant compound was compared with avermectin Bla/Blb (avermectin the starting material for the instant compound) and 4"-deoxy-4"-amino avermectin Bla/Blb. […] Expressed another way, 4"-deoxy-4"-amino avermectin Bla/Blb was 60% effective at 0.5 micrograms/GWT against southern armyworm while 4"-deoxy-4"-epi-N-methylamino avermectin Bla/Blb was 90% effective at 0.125 micrograms/GWT against the same parasite.

Substance	% effective (0.5 micrograms/GWT) [%]	% effective (0.125 micrograms/GWT) [%]
4"-deoxy-4"-amino avermectin Bla/Blb	60	–
4"-Deoxy-4"-epi-methylaminoavermectin Bla/Blb	–	90

— patent publication US4874749A, “4"-Deoxy-4-N-methylamino avermectin Bla/Blb” (Merck & Co., Inc., priority 1987, dated 1989)
